This note sets out measurements from PubChem BioAssay AID248 (DTP/NCI, 2004).

This assay deals with L1210 leukemia ip in BDF1 mice, survival T/C. The assay can be described thus: NCI In Vivo Anticancer Drug Screen. Data for tumor model L1210 Leukemia (intraperitoneal) in B6D2F1 (BDF1) mice. The conditions noted are these: T/C endpoint: mean survival time, higher T/C = longer survival.
The mark [1] stands for this setting: dose: 400.0 mg/kg/injection, schedule: Q04DX003 (ip), vehicle: saline with Tween-80.
[2] abbreviates: dose: 100.0 mg/kg/injection, schedule: Q04DX003 (ip), vehicle: Klucel (hydroxypropylcellulose) (HPC).
Where [3] appears, read: dose: 200.0 mg/kg/injection, schedule: Q04DX003 (ip), vehicle: Klucel (hydroxypropylcellulose) (HPC).
Where [4] appears, read: dose: 400.0 mg/kg/injection, schedule: Q04DX003 (ip), vehicle: Klucel (hydroxypropylcellulose) (HPC).
The mark [5] stands for this setting: dose: 400.0 mg/kg/injection, schedule: Q01DX001 (ip), vehicle: saline.
Where [6] appears, read: dose: 150.0 mg/kg/injection, schedule: Q01DX001 (ip), vehicle: saline.
Setting [7] is: dose: 300.0 mg/kg/injection, schedule: Q01DX001 (ip), vehicle: saline.
Where [8] appears, read: dose: 50.0 mg/kg/injection, schedule: Q04DX003 (ip), vehicle: water.
The mark [9] stands for this setting: dose: 100.0 mg/kg/injection, schedule: Q04DX003 (ip), vehicle: water.
Setting [10] is: dose: 200.0 mg/kg/injection, schedule: Q04DX003 (ip), vehicle: water.
Setting [11] is: dose: 400.0 mg/kg/injection, schedule: Q04DX003 (ip), vehicle: water.
The mark [12] stands for this setting: dose: 200.0 mg/kg/injection, schedule: Q04DX003 (ip), vehicle: saline.
The mark [13] stands for this setting: dose: 200.0 mg/kg/injection, schedule: Q01DX009 (ip), vehicle: carboxymethylcellulose (CMC).
[14] abbreviates: dose: 400.0 mg/kg/injection, schedule: Q01DX009 (ip), vehicle: carboxymethylcellulose (CMC).
The mark [15] stands for this setting: dose: 200.0 mg/kg/injection, schedule: Q01DX009 (ip), vehicle: saline with Tween-80.
The mark [16] stands for this setting: dose: 400.0 mg/kg/injection, schedule: Q01DX009 (ip), vehicle: saline with Tween-80.
The mark [17] stands for this setting: dose: 150.0 mg/kg/injection, schedule: Q01DX001 (ip), vehicle: other.
[18] abbreviates: dose: 300.0 mg/kg/injection, schedule: Q01DX001 (ip), vehicle: other.

The list does not hold the whole screen: it is rich in T/C values a quarter to a half above the control, in often repeated tests (any T/C) and in doses without a T/C. Other doses and runs of a compound stand elsewhere. T/C is the treated group as % of the vehicle group. Some entries give survivors of the animals treated and no T/C: the source holds a T/C of zero for them, seemingly a mark for toxic or unscored doses. Some doses without a T/C left all or most animals alive at the check, yet need not have been tolerated: the source hardly ever lists a survival T/C far under the control, and the zero likely stands for such cases as well. Counts of survivors are from the toxicity check (mostly the fifth day) where no day follows; animals may have died later. Schedules are NCI's codes, read here as Q, the interval in days (D) or hours (H), X, the number of doses. Some molecules as drawn cover several salts, stereoisomers or complexes of the source; a dose is that of the sample tested. Some entries hold several experiments; the results are listed from low to high. Where survival is the endpoint, the PubChem record calls one and a half times the control and up active, and a quarter to a half above the control has no call in these data; cut-offs in other NCI protocols can differ.

For the compound `CCC(=CCC1=C(O)c2ccccc2C(=O)C1=O)CC`, the survivor count (dose: 400.0 mg/kg/injection, schedule: Q01DX001 (ip), vehicle: water) is reported as 0 of 6.

For `COc1cccc(C[Si](C)C)c1`, under setting [1], the survivor count is reported as 6 of 6.

In the case of `CC(C)(C)CC(C)(C)NCC#N`, the survivor count by setting is: (dose: 50.0 mg/kg/injection, schedule: Q04DX003 (ip), vehicle: Klucel (hydroxypropylcellulose) (HPC)) 2 of 6; under setting [2], 0 of 6; under setting [3], 0 of 6; under setting [4], 1 of 6.

Turning to `O=C(O)CO`, under setting [5], the survivor count is 2 of 4.

Regarding `NC(=S)NN=C1CCCCCCCCC1`, the survivor count by setting is: (dose: 200.0 mg/kg/injection, schedule: Q01DX001 (ip), vehicle: saline) 0 of 4; under setting [5], 0 of 4.

Take `NCc1ccc[n+]([O-])c1`: the survivor count (dose: 100.0 mg/kg/injection, schedule: Q04DX002 (ip), vehicle: saline with Tween-80) is recorded as 3 of 3.

Consider `Cc1cc(N(CCOS(C)(=O)=O)CCOS(C)(=O)=O)ccc1N=O`, for which the T/C (dose: 125.0 micrograms/kg/injection, schedule: Q01DX010 (ip), vehicle: saline) is 125 % of control; the T/C (dose: 250.0 micrograms/kg/injection, schedule: Q01DX010 (ip), vehicle: saline) was 143 % of control; the T/C (dose: 500.0 micrograms/kg/injection, schedule: Q01DX010 (ip), vehicle: saline) was 149 % of control.

As to `CN(N=O)C(=O)NC1C(CO)OC2OC(C)(C)OC21` (configuration not stated), the T/C (dose: 200.0 mg/kg/injection, schedule: Q01DX009 (ip), vehicle: saline sonified) was 129 % of control.

Regarding `O=C(COC1CCCCC1)OC1CCCCC1`, the survivor count (dose: 200.0 mg/kg/injection, schedule: Q04DX003 (ip), vehicle: saline with Tween-80) was 6 of 6.

`Nc1ncn(C2CC(OC(=O)c3ccc(Cl)cc3)C(COC(=O)c3ccc(Cl)cc3)O2)c(=O)n1` (configuration not stated): the T/C (dose: 200.0 mg/kg/injection, schedule: Q01DX005 (ip), vehicle: saline) is 144 % of control.

As for `O=C(NOCc1cscn1)NC1CCCCC1`, the survivor count under setting [6] is 1 of 6 and the survivor count under setting [7] is reported as 0 of 6.

`COC1C2CCC1[N+](C)(C)CC2` (configuration not stated): the survivor count is, setting by setting: (dose: 200.0 mg/kg/injection, schedule: Q01DX009 (ip), vehicle: saline) 0 of 6; (dose: 400.0 mg/kg/injection, schedule: Q01DX009 (ip), vehicle: saline) 0 of 6.

Regarding `CN(C(=O)OCc1ccccc1)C(Cc1ccccc1)C(=O)O` (configuration not stated), where the note is “dose: 400.0 mg/kg/injection, schedule: Q01DX001 (ip), vehicle: other”, the survivor count is 2 of 6.

For `N/C(Cc1ccc(Cl)cc1)=N/O`, the survivor count under setting [4] is listed as 4 of 6.

Take `CCN(CC)C(C)=O`: the survivor count (dose: 100.0 mg/kg/injection, schedule: Q01DX001 (ip), vehicle: saline) is reported as 4 of 4.

Consider `CN(N)C(=O)Nc1ccc(Cl)c(Cl)c1`, for which the survivor count (dose: 300.0 mg/kg/injection, schedule: Q01DX001 (ip), vehicle: carboxymethylcellulose (CMC)) is listed as 2 of 6.

As to `NC(=O)C(c1ccccc1)N1CCCCC1` (configuration not stated), the survivor count is, setting by setting: under setting [3], 1 of 6; under setting [4], 0 of 6.

For the compound `C[n+]1c(-c2ccccc2)c2ccccc2c2ccccc21`, the survivor count runs as follows: (dose: 6.25 mg/kg/injection, schedule: Q01DX009 (ip), vehicle: water) 0 of 6; (dose: 6.25 mg/kg/injection, schedule: Q04DX003 (ip), vehicle: water) 6 of 6; (dose: 12.5 mg/kg/injection, schedule: Q04DX003 (ip), vehicle: water) 0 of 6; (dose: 25.0 mg/kg/injection, schedule: Q04DX003 (ip), vehicle: water) 0 of 6; under setting [8], 0 of 6; under setting [9], 0 of 6. The survivor count runs as follows: under setting [10], 0 of 6; under setting [11], 0 of 6.

Consider `CC(=O)[O][Pb]([c]1ccccc1)([c]1ccccc1)[c]1ccccc1`, for which the survivor count (dose: 0.25 mg/kg/injection, schedule: Q01DX015 (ip), vehicle: carboxymethylcellulose (CMC)) is reported as 6 of 6 and the survivor count (dose: 8.0 mg/kg/injection, schedule: Q01DX015 (ip), vehicle: carboxymethylcellulose (CMC)) is recorded as 3 of 6.

For `N#CC(C#N)=Cc1cccnc1`, the survivor count is, setting by setting: under setting [2], 0 of 6; (dose: 200.0 mg/kg/injection, schedule: Q01DX001 (ip), vehicle: carboxymethylcellulose (CMC)) 0 of 4; under setting [3], 0 of 6; (dose: 400.0 mg/kg/injection, schedule: Q01DX001 (ip), vehicle: carboxymethylcellulose (CMC)) 0 of 4.

With `O=C(c1ccccc1)N1CC2CC3OC3c3cccc1c32` (configuration not stated), under setting [1], the survivor count was 5 of 6.

In the case of `CC1CN1N` (configuration not stated), the survivor count by setting is: under setting [12], 0 of 6; under setting [5], 1 of 6.

Turning to `O=S(=O)(Nc1cccc(C(F)(F)F)c1)c1cc(Cl)c(Cl)cc1Cl`, the survivor count by setting is: (dose: 50.0 mg/kg/injection, schedule: Q01DX009 (ip), vehicle: carboxymethylcellulose (CMC)) 3 of 3; under setting [13], 3 of 3; under setting [14], 3 of 3. Besides, the T/C by setting is: (dose: 100.0 mg/kg/injection, schedule: Q01DX009 (ip), vehicle: carboxymethylcellulose (CMC)) 89, 90, 91, 101 % of control; under setting [13], 90 and 93 % of control; under setting [14], 86, 88, 90 % of control.

On to `CC(=O)OC1CC2C(=O)CC1(C)C2(C)C` (configuration not stated), for which the survivor count under setting [6] is reported as 1 of 6 and the survivor count under setting [7] was 0 of 6.

As for `CC1(N)CCC(C(C)(C)N)CC1` (configuration not stated), the survivor count reads like this: under setting [15], 5 of 6; under setting [16], 0 of 6.

`C[n+]1cc2ccccc2c2ccccc21`: the survivor count was 2 of 6 under setting [8]; 2 of 6 (dose: 100.0 mg/kg/injection, schedule: Q04DX003 (ip), vehicle: saline); 5 of 6 under setting [9]; 1 of 6 under setting [12]; 1 of 6 under setting [10]; 0 of 6 (dose: 400.0 mg/kg/injection, schedule: Q04DX003 (ip), vehicle: saline). The survivor count under setting [11] is 1 of 6.

On to `CC1=CC(=O)c2[nH]ncc2C1=O`, for which the survivor count is on record as 0 of 4 (dose: 20.0 mg/kg/injection, schedule: Q01DX001 (ip), vehicle: water); 0 of 4 (dose: 40.0 mg/kg/injection, schedule: Q01DX001 (ip), vehicle: water); 0 of 4 (dose: 80.0 mg/kg/injection, schedule: Q01DX001 (ip), vehicle: water).

As for `Cc1cc(C)c(CCN(C)C)c(C)c1`, the survivor count under setting [5] is 1 of 4.

On to `[I][Hg][I].c1ccc(N=P(c2ccccc2)(c2ccccc2)c2ccccc2)cc1`, for which the survivor count reads like this: (dose: 75.0 mg/kg/injection, schedule: Q01DX001 (ip), vehicle: other) 1 of 6; under setting [17], 0 of 6; under setting [18], 0 of 6.

For the compound `COC(=O)c1ccc(OC(=O)Nc2cccc(Cl)c2C)cc1`, the survivor count under setting [16] was 0 of 3 and 1 of 6.

As for `O=C(O)c1cc2ccccc2o1`, the survivor count under setting [15] is on record as 1 of 6.

As to `CC1=CC(=O)C(c2ccc(O)cc2O)=CC1=O`, the survivor count is, setting by setting: under setting [17], 1 of 6; under setting [18], 0 of 6.

`CCN(CC)N=Nc1ccccc1-c1nc(N)nc(N)n1`: the survivor count under setting [4] was 2 of 6.
